The source of these data is article PMC7694386.

Chains of the proteins cited; added tags and fusions are not shown.
UniProt O95817: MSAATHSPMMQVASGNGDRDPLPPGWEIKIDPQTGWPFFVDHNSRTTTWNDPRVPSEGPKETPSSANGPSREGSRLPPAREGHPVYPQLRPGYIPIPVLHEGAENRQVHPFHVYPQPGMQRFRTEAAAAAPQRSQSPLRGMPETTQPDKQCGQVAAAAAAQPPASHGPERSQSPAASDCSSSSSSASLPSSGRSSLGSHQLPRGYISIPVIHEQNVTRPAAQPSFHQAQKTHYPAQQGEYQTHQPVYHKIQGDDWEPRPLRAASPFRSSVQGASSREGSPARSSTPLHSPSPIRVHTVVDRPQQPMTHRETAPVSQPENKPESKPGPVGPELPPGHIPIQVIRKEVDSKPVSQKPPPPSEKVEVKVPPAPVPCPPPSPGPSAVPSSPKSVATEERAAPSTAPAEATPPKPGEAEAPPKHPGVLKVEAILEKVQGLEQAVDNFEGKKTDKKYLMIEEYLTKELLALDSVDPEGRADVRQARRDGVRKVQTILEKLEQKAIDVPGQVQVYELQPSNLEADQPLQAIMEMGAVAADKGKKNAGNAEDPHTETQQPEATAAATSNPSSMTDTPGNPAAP

Results are given in words; binding and its absence hold for the method and conditions named. Binding seen in cells or lysates may run through a third protein. These calls come from enrichment with a bait or labelling near it, and not all partners need be listed.

This assay has as its target BAG3 (BCL-2-associated athanogene 3) (human (endogenous in HEK293T)) (UniProt O95817). Description: affinity purification with mass spectrometry; endogenous BAG3 immunoprecipitated with anti-BAG3 antibody and Protein A/G magnetic beads from HEK293T lysate; cells treated with DMSO (basal) or 10 µM MG132 for 6 h; IgG IP (MG132_IgG) as control; label-free quantification, three biological replicates.

B1: VARS (protein, UniProt P26640 1-1264)
chain: MSTLYVSPHPDAFPSLRALIAARYGEAGEGPGWGGAHPRICLQPPPTSRTPFPPPRLPALEQGPGGLWVWGATAVAQLLWPAGLGGPGGSRAAVLVQQWVSYADTELIPAACGATLPALGLRSSAQDPQAVLGALGRALSPLEEWLRLHTYLAGEAPTLADLAAVTALLLPFRYVLDPPARRIWNNVTRWFVTCVRQPEFRAVLGEVVLYSGARPLSHQPGPEAPALPKTAAQLKKEAKKREKLEKFQQKQKIQQQQPPPGEKKPKPEKREKRDPGVITYDLPTPPGEKKDVSGPMPDSYSPRYVEAAWYPWWEQQGFFKPEYGRPNVSAANPRGVFMMCIPPPNVTGSLHLGHALTNAIQDSLTRWHRMRGETTLWNPGCDHAGIATQVVVEKKLWREQGLSRHQLGREAFLQEVWKWKEEKGDRIYHQLKKLGSSLDWDRACFTMDPKLSAAVTEAFVRLHEEGIIYRSTRLVNWSCTLNSAISDIEVDKKELTGRTLLSVPGYKEKVEFGVLVSFAYKVQGSDSDEEVVVATTRIETMLGDVAVAVHPKDTRYQHLKGKNVIHPFLSRSLPIVFDEFVDMDFGTGAVKITPAHDQNDYEVGQRHGLEAISIMDSRGALINVPPPFLGLPRFEARKAVLVALKERGLFRGIEDNPMVVPLCNRSKDVVEPLLRPQWYVRCGEMAQAASAAVTRGDLRILPEAHQRTWHAWMDNIREWCISRQLWWGHRIPAYFVTVSDPAVPPGEDPDGRYWVSGRNEAEAREKAAKEFGVSPDKISLQQDEDVLDTWFSSGLFPLSILGWPNQSEDLSVFYPGTLLETGHDILFFWVARMVMLGLKLTGRLPFREVYLHAIVRDAHGRKMSKSLGNVIDPLDVIYGISLQGLHNQLLNSNLDPSEVEKAKEGQKADFPAGIPECGTDALRFGLCAYMSQGRDINLDVNRILGYRHFCNKLWNATKFALRGLGKGFVPSPTSQPGGHESLVDRWIRSRLTEAVRLSNQGFQAYDFPAVTTAQYSFWLYELCDVYLECLKPVLNGVDQVAAECARQTLYTCLDVGLRLLSPFMPFVTEELFQRLPRRMPQAPPSLCVTPYPEPSECSWKDPEAEAALELALSITRAVRSLRADYNLTRIRPDCFLEVADEATGALASAVSGYVQALASAGVVAVLALGAPAPQGCAVALASDRCSIHLQLQGLVDPARELGKLQAKRVEAQRQAQRLRERRAASGYPVKVPLEVQEADEAKLQQTEAELRKVDEAIALFQKML
For the molecule B1, the binding entry was “binds”.

B2: DKC1 (protein, UniProt O60832 1-514)
chain: MADAEVIILPKKHKKKKERKSLPEEDVAEIQHAEEFLIKPESKVAKLDTSQWPLLLKNFDKLNVRTTHYTPLACGSNPLKREIGDYIRTGFINLDKPSNPSSHEVVAWIRRILRVEKTGHSGTLDPKVTGCLIVCIERATRLVKSQQSAGKEYVGIVRLHNAIEGGTQLSRALETLTGALFQRPPLIAAVKRQLRVRTIYESKMIEYDPERRLGIFWVSCEAGTYIRTLCVHLGLLLGVGGQMQELRRVRSGVMSEKDHMVTMHDVLDAQWLYDNHKDESYLRRVVYPLEKLLTSHKRLVMKDSAVNAICYGAKIMLPGVLRYEDGIEVNQEIVVITTKGEAICMAIALMTTAVISTCDHGIVAKIKRVIMERDTYPRKWGLGPKASQKKLMIKQGLLDKHGKPTDSTPATWKQEYVDYSESAKKEVVAEVVKAPQVVAEAAKTAKRKRESESESDETPPAAPQLIKKEKKKSKKDKKAKAGLESGAEPGDGDSDTTKKKKKKKKAKEVELVSE
As for B2, the binding entry was “binds”.
